# Experimental data: the supplement of paper PMC12593923
# Where a name gives a salt, the structure may show the parent alone. Several reference drugs read as weak here; read low effects with care.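 The three lines are all high-grade serous ovarian cancer cells with differing chemosensitivity; OVCAR3 is described as chemosensitive. Toxicity was normalized between DMSO vehicle wells and fully lysed wells, the score comes from a fitted multi-dose response curve, and a score above 5 was counted as drug sensitivity.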
# Key:
# Assay in all cases: drug sensitivity score (DSS2, cytotoxicity, CellTox Green); higher = more cytotoxic / more sensitive; extreme values may be limits of the assay
# Details in all cases: 72 h; doses 0.5, 1, 5 µM
# OVCAR4 = tested on: OVCAR4
# OVCAR3 = tested on: OVCAR3
# Kuramochi = tested on: Kuramochi
SMILES,drug sensitivity score (OVCAR4),drug sensitivity score (OVCAR3),drug sensitivity score (Kuramochi)
COc1cc2nc(N3CCN(C(=O)C4COc5ccccc5O4)CC3)nc(N)c2cc1OC (stereo not given) [Doxazosin (mesylate)],0 DSS,0 DSS,0 DSS
Cc1cnc(Nc2ccc(OCCN3CCCC3)cc2)nc1Nc1cccc(S(=O)(=O)NC(C)(C)C)c1 [Fedratinib],0 DSS,0.2 DSS,0.5 DSS
CCN(CC)CC(=O)Nc1c(C)cccc1C [Lidocaine (hydrochloride)],0 DSS,0 DSS,0 DSS
CC[C@H](C)[C@H](NC(=O)[C@H](Cc1ccc(O)cc1)NC(=O)[C@@H](NC(=O)[C@H](CCCNC(=N)N)NC(=O)[C@@H](N)CC(=O)O)C(C)C)C(=O)N[C@@H](Cc1cnc[nH]1)C(=O)N1CCC[C@H]1C(=O)N[C@@H](Cc1ccccc1)C(=O)O [Angiotensin II human (acetate)],0 DSS,0 DSS,0 DSS
Cc1cncc(CN2CCC(=C3c4ccc(Cl)cc4CCc4cccnc43)CC2)c1 [Rupatadine (Fumarate)],0 DSS,0 DSS,0 DSS
Nc1nc2c(ncn2COCCO)c(=O)[nH]1 [Acyclovir],0 DSS,0 DSS,0 DSS
Oc1cc(Cl)ccc1Oc1ccc(Cl)cc1Cl [Triclosan],0 DSS,2.4 DSS,0 DSS
COc1cc([C@@H]2c3cc4c(cc3[C@@H](O[C@@H]3O[C@@H]5CO[C@@H](c6cccs6)O[C@H]5[C@H](O)[C@H]3O)[C@H]3COC(=O)[C@H]23)OCO4)cc(OC)c1O [Teniposide],0 DSS,0.1 DSS,1.4 DSS
C[C@H]1CNCCCN1S(=O)(=O)c1cccc2cncc(F)c12 [Ripasudil],0 DSS,0 DSS,0 DSS
C[C@@H]1CC[C@]2(NC1)O[C@H]1C[C@H]3[C@@H]4CC=C5C[C@@H](O)CC[C@]5(C)[C@H]4CC[C@]3(C)[C@H]1[C@@H]2C [Solasodine],0 DSS,0 DSS,0 DSS
Cc1c(C(=O)Nc2ccc(N3C[C@@H](C)O[C@@H](C)C3)nc2)cccc1-c1ccc(OC(F)(F)F)cc1 [Sonidegib],0 DSS,0 DSS,0 DSS
CC[C@H]1OC(=O)[C@H](C)[C@@H](O[C@H]2C[C@@](C)(OC)[C@@H](O)[C@H](C)O2)[C@H](C)[C@@H](O[C@@H]2O[C@H](C)C[C@H](N(C)C)[C@H]2O)[C@](C)(OC)C[C@@H](C)C(=O)[C@H](C)[C@@H](O)[C@]1(C)O [Clarithromycin],0 DSS,0 DSS,0 DSS
CO[C@@H]1[C@@H](OC(N)=O)[C@@H](O)[C@H](Oc2ccc3c(O)c(NC(=O)c4ccc(O)c(CC=C(C)C)c4)c(=O)oc3c2C)OC1(C)C [Novobiocin (Sodium)],0 DSS,0 DSS,0 DSS
COc1cccc2c1C(=O)c1c(O)c3c(c(O)c1C2=O)C[C@@](O)(C(C)=O)C[C@@H]3O[C@H]1C[C@H](N)[C@H](O)[C@H](C)O1 [Daunorubicin (hydrochloride)],0 DSS,0 DSS,0 DSS
CC(=O)c1c(C)c2cnc(Nc3ccc(N4CCNCC4)cn3)nc2n(C2CCCC2)c1=O [Palbociclib (isethionate)],0 DSS,0 DSS,0 DSS
O=C(Nc1nc2cccc(-c3ccc(CN4CCS(=O)(=O)CC4)cc3)n2n1)C1CC1 [Filgotinib],0 DSS,0 DSS,0 DSS
CC1(C)CC[C@]2(C(=O)O)CC[C@]3(C)C(=CC[C@@H]4[C@@]5(C)CC[C@H](O)C(C)(C)[C@@H]5CC[C@]43C)[C@@H]2C1 [Oleanolic Acid],0 DSS,0 DSS,0 DSS
O=S(=O)(c1cccc2c(O)nccc12)N1CCCNCC1 [Hydroxyfasudil],0 DSS,0 DSS,0 DSS
O=C1[C@H](CC[C@H](O)c2ccc(F)cc2)[C@@H](c2ccc(O)cc2)N1c1ccc(F)cc1 [Ezetimibe],0 DSS,0 DSS,0 DSS
CN1[C@@H]2CC[C@H]1C[C@@H](OC(=O)C(CO)c1ccccc1)C2 (stereo not given in full) [Atropine (sulfate monohydrate)],0 DSS,0 DSS,0 DSS
COc1ccc2c(c1)c(CC(=O)O)c(C)n2C(=O)c1ccc(Cl)cc1 [Indomethacin],0 DSS,0 DSS,0 DSS
COc1ccc2cc([C@H](C)C(=O)O)ccc2c1 [Naproxen (sodium)],0 DSS,0 DSS,0 DSS
O=C(O)c1ccc(-n2nc(-c3ccccc3O)nc2-c2ccccc2O)cc1 [Deferasirox],0 DSS,0 DSS,0 DSS

# Rewritten with tabs: part of the list above.
SMILES	drug sensitivity score (OVCAR4)	drug sensitivity score (OVCAR3)	drug sensitivity score (Kuramochi)
CC[C@H](C)[C@H](NC(=O)[C@H](Cc1ccc(O)cc1)NC(=O)[C@@H](NC(=O)[C@H](CCCNC(=N)N)NC(=O)[C@@H](N)CC(=O)O)C(C)C)C(=O)N[C@@H](Cc1cnc[nH]1)C(=O)N1CCC[C@H]1C(=O)N[C@@H](Cc1ccccc1)C(=O)O [Angiotensin II human (acetate)]	0 DSS	0 DSS	0 DSS
Cc1cncc(CN2CCC(=C3c4ccc(Cl)cc4CCc4cccnc43)CC2)c1 [Rupatadine (Fumarate)]	0 DSS	0 DSS	0 DSS
COc1cc([C@@H]2c3cc4c(cc3[C@@H](O[C@@H]3O[C@@H]5CO[C@@H](c6cccs6)O[C@H]5[C@H](O)[C@H]3O)[C@H]3COC(=O)[C@H]23)OCO4)cc(OC)c1O [Teniposide]	0 DSS	0.1 DSS	1.4 DSS

# Continued.

SMILES,drug sensitivity score (OVCAR4),drug sensitivity score (OVCAR3),drug sensitivity score (Kuramochi)
CCCCCOC(=O)Nc1nc(=O)n([C@@H]2O[C@H](C)[C@@H](O)[C@H]2O)cc1F [Capecitabine],0 DSS,0 DSS,0 DSS
Cc1ccc2c(c1)c1c(n2CCc2ccc(C)nc2)CCN(C)C1 [Latrepirdine (dihydrochloride)],2.4 DSS,2.4 DSS,4.1 DSS
C=CC1=C(C)c2cc3[n-]c(cc4[n-]c(cc5nc(cc1n2)C(C)=C5C=C)c(C)c4CCC(=O)O)c(CCC(=O)O)c3C.[Cl-].[Fe+3] [Hemin],0 DSS,0 DSS,0 DSS
COCCCOc1ccnc(C[S+]([O-])c2nc3ccccc3[nH]2)c1C (stereo not given) [Rabeprazole (sodium)],0 DSS,0 DSS,0 DSS
COc1ccc2c3c1O[C@H]1C[C@@H](O)C=C[C@@]31CCN(C)C2 [Galanthamine],0 DSS,0 DSS,0 DSS
N[C@@H](CC(=O)N1CCn2c(nnc2C(F)(F)F)C1)Cc1cc(F)c(F)cc1F [Sitagliptin (phosphate monohydrate)],0 DSS,0 DSS,0 DSS
COc1ccc(C2=N[C@@H](c3ccc(Cl)cc3)[C@@H](c3ccc(Cl)cc3)N2C(=O)N2CCNC(=O)C2)c(OC(C)C)c1 [Nutlin-3],0 DSS,0 DSS,0 DSS
CC(=O)N(O)CCCCCNC(=O)CCC(=O)N(O)CCCCCNC(=O)CCC(=O)N(O)CCCCCN [Deferoxamine (mesylate)],0 DSS,0 DSS,0 DSS
COc1ccc(C(=O)c2ccccc2)c(O)c1 [Oxybenzone],0 DSS,0 DSS,0 DSS
COc1cc(C2Oc3cc([C@H]4Oc5cc(O)cc(O)c5C(=O)[C@@H]4O)ccc3OC2CO)ccc1O (stereo not given in full) [Silibinin],0 DSS,6.6 DSS,1.2 DSS
Cc1nnc(NC(=O)c2nc(S(=O)(=O)Cc3ccc(F)cc3)ncc2Cl)s1,0 DSS,0 DSS,0 DSS
COc1ccc(C2=N[C@@H](c3ccc(Cl)cc3)[C@@H](c3ccc(Cl)cc3)N2C(=O)N2CCNC(=O)C2)c(OC(C)C)c1 [Nutlin-3a],0 DSS,0 DSS,0 DSS
CCN(CC)C(=S)SSC(=S)N(CC)CC [Disulfiram],0 DSS,0 DSS,0 DSS
COC1=C[C@@H]2[C@@H]3Cc4ccc(OC)c(O)c4[C@]2(CCN3C)CC1=O [Sinomenine hydrochloride],0 DSS,0 DSS,0 DSS
C#Cc1cccc(Nc2ncnc3cc(OCCOC)c(OCCOC)cc23)c1 [Erlotinib (Hydrochloride)],0 DSS,0 DSS,0 DSS
OC[C@@H](O)[C@@H](O)[C@H](O)[C@H](O)CO [D-Mannitol],0 DSS,0 DSS,0 DSS
CCC1=C[C@@H]2CN(C1)Cc1c([nH]c3ccccc13)[C@@](C(=O)OC)(c1cc3c(cc1OC)N(C)[C@H]1[C@@](O)(C(=O)OC)[C@H](OC(C)=O)[C@]4(CC)C=CCN5CC[C@]31[C@@H]54)C2 [Vinorelbine (ditartrate)],0.8 DSS,8.7 DSS,2.7 DSS
O=C([O-])c1ccccc1O.[Na+] [Sodium Salicylate],0 DSS,0 DSS,0 DSS
CC(C)c1cc2c(cc1S(=O)(=O)O)[C@@]1(C)CCC[C@@](C)(C(=O)O)[C@@H]1CC2 [Ecabet (sodium)],0 DSS,0 DSS,0 DSS
CC(=O)[C@H]1CC[C@H]2[C@@H]3CC=C4C[C@@H](O)CC[C@]4(C)[C@H]3CC[C@]12C [Pregnenolone],0 DSS,0 DSS,0 DSS
CC[C@@]1(O)C(=O)OCc2c1cc1n(c2=O)Cc2cc3c(CN(C)C)c(O)ccc3nc2-1 [Topotecan (Hydrochloride)],2.3 DSS,2.3 DSS,4.9 DSS
CC(C)c1nc(N(C)S(C)(=O)=O)nc(-c2ccc(F)cc2)c1/C=C/[C@@H](O)C[C@@H](O)CC(=O)O [Rosuvastatin (Calcium)],0 DSS,0 DSS,0 DSS
